Results reported in PubChem BioAssay AID1259354 (Paczesny and Yang Labs, IUPUI and University of Michigan, 2018).
Values joined by “and” are separate entries in the source; they are usually repeats but may differ in a detail not shown here. Equal entries are not always repeated. Screen size: about 78,000 compounds; about 1,800 (2.3%) were called active. The inconclusive results got no clear call from the source; some entries with a clear call stand among them for comparison. No stated cut-off is given here; in the data, active means inhibition above about 30%; inconclusive means mostly about 10% to 28%; inactive means weaker than that.

Amino acid sequences for entries named in this document (tags omitted). A change or cut given only in a name is not applied to a line headed by its entry.
UniProt Q01638: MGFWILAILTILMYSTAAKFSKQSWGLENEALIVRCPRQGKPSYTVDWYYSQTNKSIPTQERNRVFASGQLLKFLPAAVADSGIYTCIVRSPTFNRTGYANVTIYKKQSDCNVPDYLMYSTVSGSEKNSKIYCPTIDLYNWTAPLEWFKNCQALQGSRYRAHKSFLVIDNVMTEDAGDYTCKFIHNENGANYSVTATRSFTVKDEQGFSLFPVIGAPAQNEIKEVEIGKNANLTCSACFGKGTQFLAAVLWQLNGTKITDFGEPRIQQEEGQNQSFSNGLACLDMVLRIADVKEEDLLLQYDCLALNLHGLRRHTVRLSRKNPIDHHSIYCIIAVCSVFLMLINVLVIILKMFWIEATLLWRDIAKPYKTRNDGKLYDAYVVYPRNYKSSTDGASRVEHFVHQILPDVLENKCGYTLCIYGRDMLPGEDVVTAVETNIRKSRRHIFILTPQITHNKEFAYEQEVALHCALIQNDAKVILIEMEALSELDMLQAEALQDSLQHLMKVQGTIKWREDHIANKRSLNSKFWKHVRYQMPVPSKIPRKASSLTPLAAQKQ

target: Interleukin-1 receptor-like 1 (Homo sapiens) (UniProt Q01638); experiment: blocks human ST2 binding to IL-33, primary screen, biochemical, AlphaLISA (AID 1259354); conditions: AlphaLISA ST2-Fc/biotin-IL-33 interaction, 1 h; at 17 µM, hits give high values

| Compound | inhibition |
| --- | --- |
| O=C(Nc1c2c(nn1-c1ccc(Cl)cc1)CSC2)c1ccc(Br)cc1 | inactive |
| CN1C[C@@H](NC(=O)c2ccc(F)cc2)C[C@H]1c1nc(Cc2ccccc2)no1 | inconclusive: 18% |
| COc1ccc(-c2cc(-c3ccccc3)nc3nc4ccccc4c(=O)n23)cc1 | inconclusive: 24% |
| COC(=O)[C@@H]1Cc2ncn(C(C)C)c2CN1S(=O)(=O)c1cccc2cccnc12 | inconclusive: 19% |
| O=C(O)c1cc(Sc2ccc(F)cc2F)nc2ccccc12 | inconclusive: 13% |
| Cc1nccc(-c2ccccc2)c1C(=O)NCC1(O)CCCNCC1 (centres undefined) | inactive |
| COc1ccccc1N=c1oc2ccccc2cc1C(=O)Nc1ccccc1 | active: 41% |
| CC(C)CCNC(=O)C1CCC(Cn2c(=O)c3sccc3n(CC(=O)NC(C)C)c2=O)CC1 (centres undefined) | inconclusive: 10% |
| Cc1cc(N2CCCCC2)nc2ccc(NC(=O)CCC(=O)NCC3CCCO3)cc12 (centres undefined) | inactive |
| Cc1nc(NCC2CC(=O)N(C(C)C)C2)c2cnn(C)c2n1 (centres undefined) | inactive |
| CC1=C(C(=O)Nc2ccccc2)C(c2cccc([N+](=O)[O-])c2)n2ncnc2N1 (centres undefined) | inconclusive: 14% |
| Oc1ccccc1-c1nc2sccn2c1Nc1ccc2c(c1)OCCO2 | inconclusive: 14% |
| CCCCCCNc1nc(CC)c2c(c1C#N)CC(C)(C)OC2 | inconclusive: 13% |
| Cc1ccccc1/C=C1\Sc2ccccc2N(CC(=O)NCCc2ccccc2)C1=O | inconclusive: 20% |
| Cc1ccc(OCC(=O)Nc2ccc(C(=O)O)cc2)cc1C | inconclusive: 11% |
| CCc1cccc(C)c1NC(=O)CSc1nccn1C | inactive |
| COc1ccc(Cl)cc1NC(=O)c1cc(Cl)ccc1OC | inconclusive: 15% |
| Cc1ccc(C(=O)N2CCN(c3cccc(C)c3C)CC2)o1 | inconclusive: 23% |
| CCC(=O)N1CCc2cc(S(=O)(=O)NC(C(=O)NCc3ccccn3)C(C)C)ccc21 (centres undefined) | inactive |
| Brc1c(-c2ccccc2)nc2n1-c1ccccc1C2 | active: 44% |
| CC1(c2ccccc2)CC(c2ccccc2)=Nc2ccccc2N1 (centres undefined) | inconclusive: 24% and inconclusive: 18% |
| C=CCSc1nc(O)cc(=O)n1-c1ccccc1 | inconclusive: 10% |
| COc1ccccc1N1CCN(Cc2ncccc2C(=O)O)CC1 | inconclusive: 15% |
| Cc1ccc(-c2n[nH]c(=O)c3ccccc23)cc1S(=O)(=O)Nn1cnnc1 | inconclusive: 11% |

| Compound | inhibition |
| --- | --- |
| Clc1cccc(N=Cc2ccc(OC3CSC3)cc2)c1 | inconclusive: 26% |
| CCSc1nnc(NC(=O)CSc2nc3c(c(=O)n2-c2ccc(C)cc2)SCC3)s1 | inactive |
| COc1ccc(NC(=O)C2CCC(=O)N2)cc1 (centres undefined) | inconclusive: 12% |
| CCOC(=O)C1=C(C)Nc2nc(SCc3cccnc3)nn2C1c1ccc(OC)cc1 (centres undefined) | inactive |
| CN1CSC2=C(C#N)C(c3ccccc3Cl)CC(=O)N2C1 (centres undefined) | inconclusive: 22% |
| CCC(C(=O)Nc1ccc(Nc2nc(C)cc(Nc3ccccc3)n2)cc1)c1ccccc1 (centres undefined) | inconclusive: 23% |
| O=C(O)C(Cc1ccc(Cl)cc1)NS(=O)(=O)c1ccccc1 (centres undefined) | inconclusive: 12% |
| O=C(CCCn1c2ccccc2c(=O)c2ccccc21)Nc1ccccc1F | inconclusive: 13% |
| O=C(NCCc1nc2cccnc2n1C1CCCCC1)Nc1ccccc1Br | inconclusive: 10% |
| Oc1oc(-c2ccccc2)nc1C=Nc1ccc(Br)cc1 | inconclusive: 12% |
| COc1ccccc1C=Nc1c(C)n(C)n(-c2ccccc2)c1=O | inconclusive: 11% |
| CCCC(=O)N1c2ccccc2C(Nc2ccccc2)CC1C (centres undefined) | inactive |
| Cc1cccc(NC(=O)c2cc(I)ccc2Cl)c1C | inconclusive: 14% |
| COCC1(C(=O)N2CCNC(=O)C2CC(=O)OC)CCC1 (centres undefined) | inconclusive: 11% |
| CNC(=O)c1ccc(Cn2c(=O)c3cc(OC)c(OC)cc3n(CC(=O)NCCCOC)c2=O)cc1 | inconclusive: 16% |
| Cn1c2c(c3cc(Oc4ccccc4)ccc31)CCCC2=O | inconclusive: 25% |
| CCC1Oc2ccccc2N(CC(=O)NCCC(C)C)C1=O (centres undefined) | inconclusive: 12% |
| CCOC(=O)c1c(NC(=O)c2ccccc2SC)sc2c1CCC2 | inactive |
| CCC(=O)CSC1=C(C#N)C(c2ccc(Cl)cc2)C(C(C)=O)=C(C)N1 (centres undefined) | inconclusive: 18% |
| CC(=C/c1ccccc1)/C=C1/SC(=O)N(c2ccc(O)cc2)C1=O | active: 45% |
| CNC(=O)c1[nH]nc2c1C(CCSC)CC(=O)N2 (centres undefined) | inconclusive: 15% |
| CCCn1nc(C)c2c1NC(=O)CC2c1cn[nH]c1-c1cc(C)ccc1C (centres undefined) | inconclusive: 17% |
| CCOC(=O)C1=C(C)N=C2SCC(=O)N2C1c1ccc(SC)cc1 (centres undefined) | inconclusive: 19% |
| Fc1ccc(CN2CCSCC2)cc1Br | inconclusive: 10% |

| Compound | inhibition |
| --- | --- |
| CC1CCN(c2nc3c(c(=O)n(C)c(=O)n3C)n2Cc2cccc(F)c2)CC1 | inactive |
| CCOc1ccc2nc(Nc3nc4c(c(=O)[nH]3)CCC4)nc(C)c2c1 | active: 31% |
| CNC(=O)c1c(N=Cc2ccccc2O)sc2c1CCCC2 | inconclusive: 26% |
| Nc1nccc(N2CC[C@@H](N3CCOCC3)[C@H](O)C2)n1 | inconclusive: 18% |
| CN1CCN(C(=O)CCC2CCCN(Cc3cccc(C(F)(F)F)c3)C2)CC1 (centres undefined) | inconclusive: 14% |
| CN1CCC(N2C[C@H](O)C[C@H]2c2nc(-c3ccc4c(c3)OCO4)no2)CC1 | inconclusive: 20% |
| COc1cccc(NC(=O)N[C@H]2C[C@@H](C(=O)N[C@H](Cc3ccccc3)C(N)=O)N(C(=O)C=C(C)C)C2)c1 | inactive |
| CCC(CC)NCC(c1cccnc1)N1CCOCC1 (centres undefined) | inconclusive: 13% |
| COc1cccc(/C=C2/C(=O)NN(c3ccc(C)c(Cl)c3)C2=O)c1 | inactive |
| CC1OC(OC2C(O)C(C(=O)O)OC(OC3CCC4(C)C(CCC5(C)C4C=CC4=C6CC(C)(C)CC(O)C6(C)CCC45C)C3(C)C)C2OC2OCC(O)C(O)C2O)C(O)C(O)C1O (centres undefined) | inactive |
| O=C(NCc1cccnc1)Nc1cccc(NC(=O)NCc2cccnc2)c1 | inconclusive: 13% |
| O=C(c1cn[nH]c1-c1cccc(F)c1)N1CC[C@@H](N2CCOCC2)[C@H](O)C1 | inconclusive: 12% |
| O=S(=O)(Nc1ccccc1F)c1cccs1 | inconclusive: 10% |
| COc1ccc(Cl)cc1-n1cnc(CCNC(C)=O)c1 | inconclusive: 17% |
| Cc1ccc(C(O)(CCN2CCCCC2)c2ccccc2)cc1 (centres undefined) | inconclusive: 13% |
| Cc1ccc(NC(=O)CNCc2cnn(-c3cccc(F)c3)c2)c(C)c1 | inconclusive: 14% |
| COc1cccc(-c2ccc(NC(=O)C3CCCN(Cc4cnc(N(C)C)s4)C3)cc2)c1 (centres undefined) | inconclusive: 21% |
| C=CCn1c(=O)c2c(nc3n2CCN3c2cccc(C)c2)n(C)c1=O | inconclusive: 17% |
| CCN1CCCC1CNS(=O)(=O)c1cccc2cccnc12 (centres undefined) | inactive |
| Cc1cc(C)n(Cc2cc(C(=O)N(C)Cc3csc(C)n3)n[nH]2)n1 | inconclusive: 10% |
| COc1cc2c(cc1OC)CN(Cc1ccc(OC)c(C)c1OC)CC2 | inconclusive: 10% |
| N#CC1=C(N)SC(N)=C(C#N)C1c1ccccc1Cl | inconclusive: 23% |
| CCN(C=Nc1sc2c(c1C#N)CCCCC2)CC | inconclusive: 24% |
| CN(CCNC(=O)c1cc(-c2cccnc2)nc2ccccc12)Cc1ccccc1 | inconclusive: 21% |

| Compound | inhibition |
| --- | --- |
| Nc1ccc2ncnc3c2c1C(=O)c1ccccc1-3 | inconclusive: 24% |
| Cn1c(=O)c2c(SCc3cccnc3)nc(-c3ccco3)nc2n(C)c1=O | inconclusive: 10% |
| COc1ccc(C2=NN(CN3C(=O)C(=O)c4ccccc43)C(c3ccccc3)C2)cc1 (centres undefined) | active: 36% |
| Cc1cccc2c(-c3nc(C(N)=O)cs3)c[nH]c12 | inactive |
| CC1(C)C[C@@H]2C[C@@](C)(CN2C2CC(=O)N(c3ccc(F)cc3)C2=O)C1 (some centres undefined) | inactive |
| CCOc1ccc2nc(N3CCCN(Cc4cccn4-c4cccnc4)CC3)nc(C)c2c1 | inconclusive: 13% |
| COc1cc(C(Nc2cc(C)ccn2)c2ccc3ccc(C)nc3c2O)cc(OC)c1OC (centres undefined) | inconclusive: 23% |
| Cc1nc2c(ccc3nc(NC(=O)C(C)(C)C)sc32)s1 | inactive |
| O=C1Oc2cc(O)cc(O)c2C(c2ccc(O)cc2)C1C1C(=O)Oc2c(O)c(O)c(O)c(O)c2C1c1ccc(O)cc1 (centres undefined) | inactive |
| c1cncc(-c2nnc([C@H]3CCN(Cc4ccc5c(c4)OCO5)C3)o2)c1 | inconclusive: 13% |
| CC(C)CCN(C)C1CCN(S(=O)(=O)c2ccc(C(C)(C)C)cc2)CC1 | inactive |
| CC(C)Cn1cc(C(=O)NCc2ccco2)c2c3ccccc3n(C)c2c1=O | inconclusive: 18% |
| O=S(=O)(c1cccc(-c2nnc(-c3ccc(Br)cc3)o2)c1)N1CCCCCC1 | inconclusive: 13% and inconclusive: 12% |
| COc1cc(NC(=O)CCC2CCCN(C(=O)CCn3ccnc3C)C2)cc(OC)c1 (centres undefined) | inactive |
| Cc1cccc2c1nc1ccccc1[n+]2[O-] | inconclusive: 29% |
| CN(C)c1ccc(/C=C(\C#N)c2nc(-c3ccc(Br)cc3)cs2)cc1 | active: 53% |
| O=C(O)CC1C(=O)NCCN1Cc1c(F)cccc1Cl (centres undefined) | inconclusive: 12% |
| Cc1ccc(S(=O)(=O)NCc2nc3cccnc3n2Cc2ccccc2Cl)cc1C | inactive |
| Cn1nc(-c2ccc(Cl)cc2)c2cc(C(=O)NCCN3CCOCC3)sc21 | inconclusive: 20% |
| COCCOc1cc(C)c2c(c1C)C[C@H]([C@H](C)C(=O)Nc1ccccn1)CC2 | inconclusive: 13% |
| CCSc1nc2sc3c(c2c(=O)n1CC)CCCC3 | inconclusive: 13% |
| CCc1nn(-c2ccccc2)c(NC(=O)c2cnccn2)c1C | inconclusive: 21% |

Single entries from the results shown.
Cc1cccc2c(-c3nc(C(N)=O)cs3)c[nH]c12 – inhibition: inactive
Cc1ccccc1/C=C1\Sc2ccccc2N(CC(=O)NCCc2ccccc2)C1=O – inhibition: inconclusive: 20%
CC(=C/c1ccccc1)/C=C1/SC(=O)N(c2ccc(O)cc2)C1=O – inhibition: active: 45%

Arranged by molar mass (ascending): 4 of the compounds above

| Compound | inhibition |
| --- | --- |
| Cc1nc2c(ccc3nc(NC(=O)C(C)(C)C)sc32)s1 | inactive |
| CC1=C(C(=O)Nc2ccccc2)C(c2cccc([N+](=O)[O-])c2)n2ncnc2N1 (centres undefined) | inconclusive: 14% |
| CC(C)Cn1cc(C(=O)NCc2ccco2)c2c3ccccc3n(C)c2c1=O | inconclusive: 18% |
| Cc1ccc(S(=O)(=O)NCc2nc3cccnc3n2Cc2ccccc2Cl)cc1C | inactive |
